Reference: article PMC3554735
These are yes or no findings as the source states them, for the method shown. In cells and extracts the contact can be indirect. These calls come from enrichment with a bait or labelling near it, and not all partners need be listed.

Amino acid sequences for entries named in this document (tags omitted).
UniProt Q14160: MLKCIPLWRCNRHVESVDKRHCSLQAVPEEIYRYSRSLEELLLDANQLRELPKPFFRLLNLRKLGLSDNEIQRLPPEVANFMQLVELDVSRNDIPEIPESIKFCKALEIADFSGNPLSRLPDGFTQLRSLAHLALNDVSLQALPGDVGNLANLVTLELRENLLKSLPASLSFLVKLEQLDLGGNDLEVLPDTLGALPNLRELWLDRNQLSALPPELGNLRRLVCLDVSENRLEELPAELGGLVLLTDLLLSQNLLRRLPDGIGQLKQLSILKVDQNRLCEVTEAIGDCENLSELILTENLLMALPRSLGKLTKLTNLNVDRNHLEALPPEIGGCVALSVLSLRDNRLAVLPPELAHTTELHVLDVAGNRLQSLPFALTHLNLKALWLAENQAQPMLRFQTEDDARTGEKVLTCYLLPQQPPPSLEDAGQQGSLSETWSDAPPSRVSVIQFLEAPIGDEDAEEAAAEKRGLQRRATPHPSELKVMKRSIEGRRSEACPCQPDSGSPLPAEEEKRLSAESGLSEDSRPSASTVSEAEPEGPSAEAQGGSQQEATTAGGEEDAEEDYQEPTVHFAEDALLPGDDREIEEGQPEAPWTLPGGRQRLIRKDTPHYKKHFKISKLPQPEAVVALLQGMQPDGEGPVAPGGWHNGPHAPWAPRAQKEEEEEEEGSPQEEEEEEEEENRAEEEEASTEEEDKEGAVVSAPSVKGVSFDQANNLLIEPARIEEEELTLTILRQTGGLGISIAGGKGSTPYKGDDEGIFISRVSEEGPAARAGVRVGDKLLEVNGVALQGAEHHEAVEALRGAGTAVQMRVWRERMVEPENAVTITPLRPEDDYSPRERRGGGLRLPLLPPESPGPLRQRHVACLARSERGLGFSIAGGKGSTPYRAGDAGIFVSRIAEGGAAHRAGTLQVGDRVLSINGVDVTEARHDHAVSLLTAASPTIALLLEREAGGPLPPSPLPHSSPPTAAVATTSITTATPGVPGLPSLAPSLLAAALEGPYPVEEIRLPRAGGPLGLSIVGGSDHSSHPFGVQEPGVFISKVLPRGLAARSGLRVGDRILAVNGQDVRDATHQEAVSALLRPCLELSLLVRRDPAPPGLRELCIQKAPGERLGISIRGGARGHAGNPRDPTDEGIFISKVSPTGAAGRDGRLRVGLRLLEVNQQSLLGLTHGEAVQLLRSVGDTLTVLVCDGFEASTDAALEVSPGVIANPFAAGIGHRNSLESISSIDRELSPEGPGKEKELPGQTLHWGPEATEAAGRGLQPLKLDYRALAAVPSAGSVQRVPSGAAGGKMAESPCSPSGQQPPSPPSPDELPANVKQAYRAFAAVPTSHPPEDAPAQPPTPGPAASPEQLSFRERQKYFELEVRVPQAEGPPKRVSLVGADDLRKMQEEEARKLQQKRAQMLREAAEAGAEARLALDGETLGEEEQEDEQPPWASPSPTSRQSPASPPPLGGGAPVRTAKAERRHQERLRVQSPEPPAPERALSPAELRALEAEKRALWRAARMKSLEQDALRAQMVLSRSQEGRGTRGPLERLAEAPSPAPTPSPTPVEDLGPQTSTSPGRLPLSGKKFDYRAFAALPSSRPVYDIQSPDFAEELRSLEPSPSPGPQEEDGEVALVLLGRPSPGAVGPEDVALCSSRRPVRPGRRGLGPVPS
UniProt P08670: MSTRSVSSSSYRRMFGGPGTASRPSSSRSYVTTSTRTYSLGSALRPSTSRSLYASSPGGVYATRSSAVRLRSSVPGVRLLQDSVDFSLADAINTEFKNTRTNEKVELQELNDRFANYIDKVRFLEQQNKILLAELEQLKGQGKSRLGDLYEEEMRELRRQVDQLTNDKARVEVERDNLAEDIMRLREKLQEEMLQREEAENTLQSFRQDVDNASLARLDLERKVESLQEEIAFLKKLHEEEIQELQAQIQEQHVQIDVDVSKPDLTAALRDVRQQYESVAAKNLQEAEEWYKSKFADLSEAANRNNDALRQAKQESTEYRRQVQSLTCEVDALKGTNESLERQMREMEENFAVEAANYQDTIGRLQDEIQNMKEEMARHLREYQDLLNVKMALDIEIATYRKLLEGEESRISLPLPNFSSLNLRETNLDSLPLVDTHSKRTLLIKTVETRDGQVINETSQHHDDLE

Biological target: HA-tagged hScrib (human) (UniProt Q14160)
Assay: affinity purification with mass spectrometry; HEK293 transfected with HA-tagged hScrib, 24 h; lysis buffer 50 mM Hepes pH 7.4, 150 mM NaCl, 50 mM NaF, 1 mM EDTA, 0.25% NP40; anti-HA beads 2-3 h at 4°C; washed with PBS

binding: binds
Substance: vimentin (from UniProt P08670 1-466)
